From paper PMC7710127
Construct, isoform or probe ends are uncertain for at least one entry.

By UniProt entry, the sequences of proteins in these tests, tags left out. Where a name states a change or a piece, a line headed by the entry shows the natural chain unless it says otherwise. Residues count along the entry.
UniProt P16422, 24-314: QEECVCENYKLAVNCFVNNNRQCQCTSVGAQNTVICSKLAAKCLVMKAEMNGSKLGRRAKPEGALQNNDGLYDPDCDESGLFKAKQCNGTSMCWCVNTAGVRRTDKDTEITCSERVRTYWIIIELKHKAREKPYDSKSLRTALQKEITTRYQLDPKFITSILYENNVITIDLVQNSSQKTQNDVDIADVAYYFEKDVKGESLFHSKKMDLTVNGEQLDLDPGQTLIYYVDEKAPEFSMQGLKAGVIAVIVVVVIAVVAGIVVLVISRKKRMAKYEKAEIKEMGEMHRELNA
UniProt P08962, 2-238: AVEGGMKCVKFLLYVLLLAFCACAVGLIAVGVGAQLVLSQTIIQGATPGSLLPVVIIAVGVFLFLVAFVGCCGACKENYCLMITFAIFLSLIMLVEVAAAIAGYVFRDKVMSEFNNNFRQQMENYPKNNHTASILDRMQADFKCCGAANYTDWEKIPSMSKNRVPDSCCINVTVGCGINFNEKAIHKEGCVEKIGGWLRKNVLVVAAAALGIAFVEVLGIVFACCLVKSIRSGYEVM
UniProt P15941: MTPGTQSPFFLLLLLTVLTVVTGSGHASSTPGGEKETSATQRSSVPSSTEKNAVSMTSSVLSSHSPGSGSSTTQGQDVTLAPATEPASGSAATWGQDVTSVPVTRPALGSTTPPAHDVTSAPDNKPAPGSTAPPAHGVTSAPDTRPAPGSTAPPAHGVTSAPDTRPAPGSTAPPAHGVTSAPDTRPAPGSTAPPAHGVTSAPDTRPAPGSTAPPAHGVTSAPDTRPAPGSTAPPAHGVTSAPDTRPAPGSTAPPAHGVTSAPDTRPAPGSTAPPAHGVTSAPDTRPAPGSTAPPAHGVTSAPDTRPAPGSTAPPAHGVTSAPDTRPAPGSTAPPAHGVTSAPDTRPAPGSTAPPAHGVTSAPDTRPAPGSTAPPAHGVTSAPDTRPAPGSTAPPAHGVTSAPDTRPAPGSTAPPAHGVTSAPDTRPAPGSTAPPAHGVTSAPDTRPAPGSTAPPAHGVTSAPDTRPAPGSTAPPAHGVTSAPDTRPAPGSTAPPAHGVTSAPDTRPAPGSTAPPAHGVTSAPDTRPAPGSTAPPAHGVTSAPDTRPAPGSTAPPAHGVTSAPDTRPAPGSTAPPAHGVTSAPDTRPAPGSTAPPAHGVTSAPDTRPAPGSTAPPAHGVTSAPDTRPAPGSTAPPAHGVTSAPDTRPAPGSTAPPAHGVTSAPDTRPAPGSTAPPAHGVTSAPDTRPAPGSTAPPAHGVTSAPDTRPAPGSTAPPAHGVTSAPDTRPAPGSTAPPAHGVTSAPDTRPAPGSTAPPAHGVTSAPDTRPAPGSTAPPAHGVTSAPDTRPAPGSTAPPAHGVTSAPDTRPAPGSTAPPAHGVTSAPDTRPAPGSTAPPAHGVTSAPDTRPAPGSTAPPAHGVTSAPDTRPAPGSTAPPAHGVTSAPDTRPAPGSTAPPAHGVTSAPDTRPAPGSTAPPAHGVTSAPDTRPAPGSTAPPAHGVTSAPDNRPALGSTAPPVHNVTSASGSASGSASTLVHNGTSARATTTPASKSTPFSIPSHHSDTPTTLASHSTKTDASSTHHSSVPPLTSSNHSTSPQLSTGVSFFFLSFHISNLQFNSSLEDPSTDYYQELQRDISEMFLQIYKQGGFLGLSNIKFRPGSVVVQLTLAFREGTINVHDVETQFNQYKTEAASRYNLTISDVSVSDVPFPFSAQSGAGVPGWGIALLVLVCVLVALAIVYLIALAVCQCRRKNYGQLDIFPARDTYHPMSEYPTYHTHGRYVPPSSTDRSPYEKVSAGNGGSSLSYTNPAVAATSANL

What was measured:
Experiment in all cases: SPR
Conditions in all cases: intact EV as analyte (1.25-20 nM), 1:1 model; SPR (Biacore T200, SA chip): HBS-EP+ 10 mM HEPES, 150 mM NaCl, 3 mM EDTA, 0.05% P20; 30 ul/min; pH and temperature not stated; native protein; single-stranded DNA
[1] = molecular target: EpCAM on intact extracellular vesicles (UniProt P16422)
[2] = molecular target: CD63 on intact extracellular vesicles (UniProt P08962)
[3] = molecular target: MUC1 on intact extracellular vesicles (UniProt P15941)

**Q.** With “CACTACAGAGGTTGCGTCTGTCCCACGTTGTCATGGGGGGTTGGCCTG [aptamerEpCAM]” as the sequence, how does the Kd [1] read?
**A.** 0.81 nM

**Q.** “CACCCCACCTCGCTCCCGTGACACTAATGCTA [aptamerCD63]” was tested. Which Kd [2] did it give?
**A.** 1.76 nM

**Q.** GCAGTTGATCCTTTGGATACCCTGG [aptamerMUC1] was tested. Which Kd [3] did it give?
**A.** 3.86 nM
